# Laboratory results as given in patent US11724987B2, “Compositions and methods of treating retinal disease” (Aldeyra Therapeutics, Inc., priority 2005, dated 2023).
# At least one structure is not confirmed: it was looked up by name or label, or the drawing left a doubt.
# Experiments:
# [1] = In vitro Schiff base confirmation by UV/VIS spectroscopy (solution phase); details: for RAL-SBC λmin: Schiff base condensation product of RAL and compound; for RAL-SBC λmin / free λmax: UV/VIS; for RAL-SBC tau: Schiff base condensation with RAL, solution phase, 100:1 mixture of compound and RAL; for free λmax: free compound
# mammals = details: cited from earlier work
# [2] = NMR analysis of RAL reactions (Schiff base condensation and ring formation)
Structure (SMILES),RAL-SBC λmin [1],RAL-SBC tau [1],free λmax [1],anesthetic activity (mammals),"tau (minutes) condense ([2]; Schiff base condensation with RAL, NMR)","Condensation rates, rank order ([2]; pure chloroform)"
CCOC(=O)c1csc(N)n1 [Compound 1],333 nm,"10,000 sec",284 nm,–,–,–
CCOC(=O)Cc1csc(N)n1 [Compound 4],325 nm,"10,000 sec",260 nm,–,–,–
Nc1nccs1 [Compound 3],330 nm,"10,000 sec",256 nm,–,–,–
"CCOC(=O)c1cccc(N)c1 [Compound 6, tricaine methane sulfonate, reference compound]",–,50 s,–,no anesthetic activity in mammals,3 min,6>8>9
COC(=O)c1nc(N)sc1Cl [Compound 2],340 nm,"3,000 sec",294 nm,–,–,–
